Data as given in PubChem BioAssay AID1224828 (NIAID, 2016)

Aim: 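Find genes required for NF-kappaB p65 moving into the nucleus after LPS in mouse macrophages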 (primary screen)
Cell system: mouse RAW264.7 G9 macrophage reporter cells (GFP-p65, Tnf promoter-mCherry)
Knock-down reagent: siRNA pool against mouse genes, 100 nM
Timing: 2 days siRNA transfection, then 40 min LPS before fixation
Treatment: LPS (Salmonella minnesota R595) at 10 ng/ml
Detection: 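Imaged p65 nuclear translocation ratio, normalised to the plate median, converted to robust z-scores and averaged across two replicates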
Scale: p65 translocation robust z-score: higher = more nuclear NF-kappaB p65 after LPS than the plate median; nuclear/cytoplasmic p65 ratio: higher = more nuclear NF-kappaB p65
Active means: 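Active if robust z is above 3.3 (negative regulators) or below -1.56, the Tlr4 control median (positive regulators); activity score 50 or more; control wells not called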
Meaning of the calls: active = hit (p65 shift raised or lowered); inactive = no clear change
In all, the deposit lists about 17,000 reagents; shown is a part drawn at random. Over the whole deposit, 762 (4.5%) got an active call. 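Active calls include both raised and lowered p65 entry, mostly lowered; wells with fewer than 50 cells lack a z-score.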 The raw values are shown without normalisation. Some reagents were tested in more than one well and are listed for each. No sequences are given here.

For Bpifa5 (BPI fold containing family A, member 5), how do the results read?
p65 translocation robust z-score: -1.77; nuclear/cytoplasmic p65 ratio, rep 1: 1.13; nuclear/cytoplasmic p65 ratio, rep 2: 1.07; low cell count flag: enough cells to score; activity call: active

For Mst1 (macrophage stimulating 1 (hepatocyte growth factor-like)), what was measured?
p65 translocation robust z-score: -1; nuclear/cytoplasmic p65 ratio, rep 1: 1.3; nuclear/cytoplasmic p65 ratio, rep 2: 1.23; low cell count flag: enough cells to score; activity call: inactive

What is on record for Dedd2 (death effector domain-containing DNA binding protein 2)?
p65 translocation robust z-score: -1.11; nuclear/cytoplasmic p65 ratio, rep 1: 1.35; nuclear/cytoplasmic p65 ratio, rep 2: 1.45; low cell count flag: enough cells to score; activity call: inactive

With Adam21 (a disintegrin and metallopeptidase domain 21), what does the deposit list?
p65 translocation robust z-score: -0.67; nuclear/cytoplasmic p65 ratio, rep 1: 1.43; nuclear/cytoplasmic p65 ratio, rep 2: 1.66; low cell count flag: enough cells to score; activity call: inactive

For Inpp5b (inositol polyphosphate-5-phosphatase B), how do the results read?
p65 translocation robust z-score: -1.71; nuclear/cytoplasmic p65 ratio, rep 1: 1.21; nuclear/cytoplasmic p65 ratio, rep 2: 1.2; low cell count flag: enough cells to score; activity call: active

Which result is listed for Mmp11 (matrix metallopeptidase 11)?
p65 translocation robust z-score: 0.93; nuclear/cytoplasmic p65 ratio, rep 1: 1.53; nuclear/cytoplasmic p65 ratio, rep 2: 1.5; low cell count flag: enough cells to score; activity call: inactive

With Cmklr1 (chemerin chemokine-like receptor 1), how do the results read?
p65 translocation robust z-score: 0.87; nuclear/cytoplasmic p65 ratio, rep 1: 1.63; nuclear/cytoplasmic p65 ratio, rep 2: 1.55; low cell count flag: enough cells to score; activity call: inactive

How did the screen score Trmt10b (tRNA methyltransferase 10B)?
nuclear/cytoplasmic p65 ratio, rep 1: 1.52; nuclear/cytoplasmic p65 ratio, rep 2: 1.41; low cell count flag: fewer than 50 cells per well; well left out of scoring; activity call: inactive

For Pde4a (phosphodiesterase 4A, cAMP specific), what was measured?
p65 translocation robust z-score: 0.09; nuclear/cytoplasmic p65 ratio, rep 1: 1.48; nuclear/cytoplasmic p65 ratio, rep 2: 1.4; low cell count flag: enough cells to score; activity call: inactive

With Alppl2 (alkaline phosphatase, placental-like 2), how do the results read?
p65 translocation robust z-score: -0.62; nuclear/cytoplasmic p65 ratio, rep 1: 1.56; nuclear/cytoplasmic p65 ratio, rep 2: 1.5; low cell count flag: enough cells to score; activity call: inactive

What did the screen give for Lsm8 (LSM8 homolog, U6 small nuclear RNA associated)?
nuclear/cytoplasmic p65 ratio, rep 1: 1.38; nuclear/cytoplasmic p65 ratio, rep 2: 1.21; low cell count flag: fewer than 50 cells per well; well left out of scoring; activity call: inactive

Which result is listed for Sftpb (surfactant associated protein B)?
p65 translocation robust z-score: 0.33; nuclear/cytoplasmic p65 ratio, rep 1: 1.53; nuclear/cytoplasmic p65 ratio, rep 2: 1.67; low cell count flag: enough cells to score; activity call: inactive

For Nudt18 (nudix hydrolase 18), what was measured?
p65 translocation robust z-score: -0.82; nuclear/cytoplasmic p65 ratio, rep 1: 1.4; nuclear/cytoplasmic p65 ratio, rep 2: 1.77; low cell count flag: enough cells to score; activity call: inactive

With Tyrp1 (tyrosinase-related protein 1), what was measured?
p65 translocation robust z-score: 0.25; nuclear/cytoplasmic p65 ratio, rep 1: 1.56; nuclear/cytoplasmic p65 ratio, rep 2: 1.52; low cell count flag: enough cells to score; activity call: inactive

What did the screen give for Micu2 (mitochondrial calcium uptake 2)?
nuclear/cytoplasmic p65 ratio, rep 1: 1.64; nuclear/cytoplasmic p65 ratio, rep 2: 1.53; low cell count flag: fewer than 50 cells per well; well left out of scoring; activity call: inactive

Only “low cell count flag” (3 entries from above):
Mst1 (macrophage stimulating 1 (hepatocyte growth factor-like)): enough cells to score
Dedd2 (death effector domain-containing DNA binding protein 2): enough cells to score
Adam21 (a disintegrin and metallopeptidase domain 21): enough cells to score

The results go on:
For Pld2 (phospholipase D2), what does the deposit list?
p65 translocation robust z-score: 0.36; nuclear/cytoplasmic p65 ratio, rep 1: 1.39; nuclear/cytoplasmic p65 ratio, rep 2: 1.26; low cell count flag: enough cells to score; activity call: inactive

For Or2ag1b (olfactory receptor family 2 subfamily AG member 1B), how do the results read?
nuclear/cytoplasmic p65 ratio, rep 1: 0.831; nuclear/cytoplasmic p65 ratio, rep 2: 1.17; low cell count flag: fewer than 50 cells per well; well left out of scoring; activity call: inactive

What did the screen give for Hdhd3 (haloacid dehalogenase-like hydrolase domain containing 3)?
p65 translocation robust z-score: -1.43; nuclear/cytoplasmic p65 ratio, rep 1: 1.42; nuclear/cytoplasmic p65 ratio, rep 2: 1.38; low cell count flag: enough cells to score; activity call: inactive

How did the screen score Gbx1 (gastrulation brain homeobox 1)?
p65 translocation robust z-score: -1.41; nuclear/cytoplasmic p65 ratio, rep 1: 1.37; nuclear/cytoplasmic p65 ratio, rep 2: 1.24; low cell count flag: enough cells to score; activity call: inactive

For Or4e5 (olfactory receptor family 4 subfamily E member 5), how do the results read?
p65 translocation robust z-score: -0.64; nuclear/cytoplasmic p65 ratio, rep 1: 1.48; nuclear/cytoplasmic p65 ratio, rep 2: 1.37; low cell count flag: enough cells to score; activity call: inactive

How did the screen score Platr26 (pluripotency associated transcript 26)?
p65 translocation robust z-score: 0.38; nuclear/cytoplasmic p65 ratio, rep 1: 1.06; nuclear/cytoplasmic p65 ratio, rep 2: 1.61; low cell count flag: enough cells to score; activity call: inactive

Which result is listed for Gria1 (glutamate receptor, ionotropic, AMPA1 (alpha 1))?
p65 translocation robust z-score: 1.06; nuclear/cytoplasmic p65 ratio, rep 1: 1.51; nuclear/cytoplasmic p65 ratio, rep 2: 1.56; low cell count flag: enough cells to score; activity call: inactive

How did the screen score Myh9 (myosin, heavy polypeptide 9, non-muscle)?
p65 translocation robust z-score: -1.14; nuclear/cytoplasmic p65 ratio, rep 1: 1.32; nuclear/cytoplasmic p65 ratio, rep 2: 1.17; low cell count flag: enough cells to score; activity call: inactive

Which result is listed for Camk4 (calcium/calmodulin-dependent protein kinase IV)?
nuclear/cytoplasmic p65 ratio, rep 1: 1.28; nuclear/cytoplasmic p65 ratio, rep 2: 1.37; low cell count flag: fewer than 50 cells per well; well left out of scoring; activity call: inactive

For Camk4 (calcium/calmodulin-dependent protein kinase IV), what does the deposit list?
p65 translocation robust z-score: -0.12; nuclear/cytoplasmic p65 ratio, rep 1: 1.69; nuclear/cytoplasmic p65 ratio, rep 2: 1.36; low cell count flag: enough cells to score; activity call: inactive

With Meis1 (Meis homeobox 1), what does the deposit list?
p65 translocation robust z-score: 0.17; nuclear/cytoplasmic p65 ratio, rep 1: 1.72; nuclear/cytoplasmic p65 ratio, rep 2: 1.59; low cell count flag: enough cells to score; activity call: inactive

What did the screen give for Krt71 (keratin 71)?
p65 translocation robust z-score: -1.51; nuclear/cytoplasmic p65 ratio, rep 1: 1.29; nuclear/cytoplasmic p65 ratio, rep 2: 1.27; low cell count flag: enough cells to score; activity call: inactive
